Measurements taken from the supplement of paper PMC7666118.
The list shows a part of the results.

Protein sequences, listed by entry. Tags and fused reporters are not part of them. Lines headed by an entry give the natural chain unless they say otherwise; changes in a name come on top.
UniProt O95394: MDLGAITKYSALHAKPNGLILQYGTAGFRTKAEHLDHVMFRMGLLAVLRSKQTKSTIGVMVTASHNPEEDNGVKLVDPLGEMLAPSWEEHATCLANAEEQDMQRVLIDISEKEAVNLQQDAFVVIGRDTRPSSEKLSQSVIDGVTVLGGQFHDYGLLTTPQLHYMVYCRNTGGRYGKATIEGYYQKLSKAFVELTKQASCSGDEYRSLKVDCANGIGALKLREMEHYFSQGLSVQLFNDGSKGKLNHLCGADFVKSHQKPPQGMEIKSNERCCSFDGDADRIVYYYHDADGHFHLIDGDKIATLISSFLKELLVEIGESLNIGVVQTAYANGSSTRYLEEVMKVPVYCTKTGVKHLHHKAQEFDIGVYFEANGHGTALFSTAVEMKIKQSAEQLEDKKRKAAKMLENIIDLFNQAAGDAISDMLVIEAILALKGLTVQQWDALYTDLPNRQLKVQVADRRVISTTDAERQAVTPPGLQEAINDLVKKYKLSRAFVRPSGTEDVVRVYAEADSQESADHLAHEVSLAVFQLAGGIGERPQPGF
UniProt Q8N8D1: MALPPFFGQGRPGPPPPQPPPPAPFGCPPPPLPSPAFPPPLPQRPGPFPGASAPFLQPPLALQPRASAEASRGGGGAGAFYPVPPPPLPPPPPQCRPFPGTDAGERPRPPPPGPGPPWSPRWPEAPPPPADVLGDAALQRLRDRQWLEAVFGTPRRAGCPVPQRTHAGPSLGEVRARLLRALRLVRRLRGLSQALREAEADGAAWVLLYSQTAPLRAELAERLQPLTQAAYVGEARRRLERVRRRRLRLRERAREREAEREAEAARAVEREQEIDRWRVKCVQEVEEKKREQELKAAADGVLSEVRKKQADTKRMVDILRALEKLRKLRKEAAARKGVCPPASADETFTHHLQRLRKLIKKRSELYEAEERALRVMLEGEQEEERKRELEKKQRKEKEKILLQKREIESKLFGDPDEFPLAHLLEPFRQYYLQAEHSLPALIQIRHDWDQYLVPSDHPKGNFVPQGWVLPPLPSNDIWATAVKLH
UniProt Q9NVE7: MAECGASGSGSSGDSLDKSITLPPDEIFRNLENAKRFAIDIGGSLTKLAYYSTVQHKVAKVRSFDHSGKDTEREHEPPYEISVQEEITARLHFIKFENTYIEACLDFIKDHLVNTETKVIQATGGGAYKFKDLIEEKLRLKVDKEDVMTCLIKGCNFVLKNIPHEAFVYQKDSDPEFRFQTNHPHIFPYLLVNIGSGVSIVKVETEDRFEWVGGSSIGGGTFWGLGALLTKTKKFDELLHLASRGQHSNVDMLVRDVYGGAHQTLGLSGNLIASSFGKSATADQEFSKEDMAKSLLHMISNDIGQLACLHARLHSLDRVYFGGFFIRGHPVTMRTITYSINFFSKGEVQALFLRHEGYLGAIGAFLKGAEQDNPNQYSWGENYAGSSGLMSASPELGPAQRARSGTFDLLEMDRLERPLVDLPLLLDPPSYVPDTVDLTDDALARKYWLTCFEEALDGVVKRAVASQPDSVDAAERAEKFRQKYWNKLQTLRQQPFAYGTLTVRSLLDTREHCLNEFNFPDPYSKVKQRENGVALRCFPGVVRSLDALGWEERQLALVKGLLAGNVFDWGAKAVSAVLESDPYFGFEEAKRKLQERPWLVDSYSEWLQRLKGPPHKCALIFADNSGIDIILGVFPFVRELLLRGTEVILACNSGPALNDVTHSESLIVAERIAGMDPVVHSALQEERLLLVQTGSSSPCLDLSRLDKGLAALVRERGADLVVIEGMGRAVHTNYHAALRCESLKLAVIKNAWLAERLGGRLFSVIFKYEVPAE
UniProt Q9BZM1: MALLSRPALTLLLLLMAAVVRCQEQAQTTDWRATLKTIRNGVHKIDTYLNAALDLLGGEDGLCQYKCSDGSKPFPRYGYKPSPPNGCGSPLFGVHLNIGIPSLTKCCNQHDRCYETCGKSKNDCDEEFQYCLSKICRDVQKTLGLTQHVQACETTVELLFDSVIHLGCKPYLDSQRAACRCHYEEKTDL
UniProt O75167: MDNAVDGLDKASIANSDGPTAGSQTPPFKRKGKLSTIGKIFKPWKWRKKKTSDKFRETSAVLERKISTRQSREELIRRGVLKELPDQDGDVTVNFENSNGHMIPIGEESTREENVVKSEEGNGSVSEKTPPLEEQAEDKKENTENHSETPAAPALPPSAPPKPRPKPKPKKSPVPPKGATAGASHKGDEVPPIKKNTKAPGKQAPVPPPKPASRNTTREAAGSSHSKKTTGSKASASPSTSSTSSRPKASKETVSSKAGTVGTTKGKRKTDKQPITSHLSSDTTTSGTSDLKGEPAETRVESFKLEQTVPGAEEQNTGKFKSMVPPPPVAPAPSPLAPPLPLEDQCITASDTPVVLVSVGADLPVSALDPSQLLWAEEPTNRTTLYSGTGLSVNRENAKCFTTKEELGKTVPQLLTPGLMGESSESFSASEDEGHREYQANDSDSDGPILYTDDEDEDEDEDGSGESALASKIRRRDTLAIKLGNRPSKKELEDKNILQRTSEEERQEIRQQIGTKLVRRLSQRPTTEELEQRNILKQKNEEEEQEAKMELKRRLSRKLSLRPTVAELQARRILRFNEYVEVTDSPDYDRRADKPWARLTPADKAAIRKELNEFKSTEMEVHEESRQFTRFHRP
UniProt Q460N5, whole entry: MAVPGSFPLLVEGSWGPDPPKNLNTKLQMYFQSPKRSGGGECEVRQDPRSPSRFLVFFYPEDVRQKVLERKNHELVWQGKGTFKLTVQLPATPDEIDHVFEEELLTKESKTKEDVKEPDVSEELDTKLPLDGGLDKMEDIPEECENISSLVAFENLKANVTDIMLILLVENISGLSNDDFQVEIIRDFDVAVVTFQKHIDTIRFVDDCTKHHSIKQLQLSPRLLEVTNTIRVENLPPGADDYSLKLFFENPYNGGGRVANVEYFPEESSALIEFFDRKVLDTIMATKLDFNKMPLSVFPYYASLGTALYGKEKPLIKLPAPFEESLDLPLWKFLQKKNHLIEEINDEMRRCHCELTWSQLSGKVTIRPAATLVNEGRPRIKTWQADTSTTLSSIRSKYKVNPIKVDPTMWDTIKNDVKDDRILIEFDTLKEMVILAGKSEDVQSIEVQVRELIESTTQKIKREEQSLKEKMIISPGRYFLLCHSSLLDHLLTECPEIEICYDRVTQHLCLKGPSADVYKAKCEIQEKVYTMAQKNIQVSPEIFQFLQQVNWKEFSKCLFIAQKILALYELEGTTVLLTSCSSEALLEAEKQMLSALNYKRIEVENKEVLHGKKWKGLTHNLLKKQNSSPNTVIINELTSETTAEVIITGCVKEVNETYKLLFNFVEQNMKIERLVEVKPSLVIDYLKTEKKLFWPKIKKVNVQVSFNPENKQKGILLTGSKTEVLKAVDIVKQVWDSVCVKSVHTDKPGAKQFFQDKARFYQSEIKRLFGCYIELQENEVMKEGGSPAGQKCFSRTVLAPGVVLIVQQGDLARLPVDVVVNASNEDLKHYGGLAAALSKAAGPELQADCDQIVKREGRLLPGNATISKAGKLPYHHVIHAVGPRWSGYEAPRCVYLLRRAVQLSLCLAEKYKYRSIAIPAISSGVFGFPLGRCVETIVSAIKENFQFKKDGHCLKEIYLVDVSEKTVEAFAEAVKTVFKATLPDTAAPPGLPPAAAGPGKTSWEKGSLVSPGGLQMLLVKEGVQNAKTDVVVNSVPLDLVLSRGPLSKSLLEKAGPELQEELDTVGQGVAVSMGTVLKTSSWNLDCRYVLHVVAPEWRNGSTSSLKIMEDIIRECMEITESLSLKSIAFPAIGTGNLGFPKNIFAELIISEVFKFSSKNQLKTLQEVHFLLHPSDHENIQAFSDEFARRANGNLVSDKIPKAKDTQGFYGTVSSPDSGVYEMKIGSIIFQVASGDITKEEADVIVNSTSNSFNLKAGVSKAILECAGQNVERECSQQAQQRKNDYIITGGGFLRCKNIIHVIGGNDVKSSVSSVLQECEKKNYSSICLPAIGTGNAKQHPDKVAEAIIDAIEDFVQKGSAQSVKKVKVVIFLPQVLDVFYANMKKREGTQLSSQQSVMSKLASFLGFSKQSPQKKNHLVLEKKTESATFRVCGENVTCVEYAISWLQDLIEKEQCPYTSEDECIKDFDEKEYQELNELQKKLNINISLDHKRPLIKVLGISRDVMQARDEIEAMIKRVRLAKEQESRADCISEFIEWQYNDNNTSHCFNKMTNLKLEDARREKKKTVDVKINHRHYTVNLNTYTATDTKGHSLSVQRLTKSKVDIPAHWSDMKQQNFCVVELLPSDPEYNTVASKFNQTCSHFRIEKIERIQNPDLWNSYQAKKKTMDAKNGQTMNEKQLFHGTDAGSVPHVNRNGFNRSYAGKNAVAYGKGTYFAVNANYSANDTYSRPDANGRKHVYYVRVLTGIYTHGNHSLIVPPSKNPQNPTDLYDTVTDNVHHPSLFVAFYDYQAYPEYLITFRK
UniProt Q9UNF0: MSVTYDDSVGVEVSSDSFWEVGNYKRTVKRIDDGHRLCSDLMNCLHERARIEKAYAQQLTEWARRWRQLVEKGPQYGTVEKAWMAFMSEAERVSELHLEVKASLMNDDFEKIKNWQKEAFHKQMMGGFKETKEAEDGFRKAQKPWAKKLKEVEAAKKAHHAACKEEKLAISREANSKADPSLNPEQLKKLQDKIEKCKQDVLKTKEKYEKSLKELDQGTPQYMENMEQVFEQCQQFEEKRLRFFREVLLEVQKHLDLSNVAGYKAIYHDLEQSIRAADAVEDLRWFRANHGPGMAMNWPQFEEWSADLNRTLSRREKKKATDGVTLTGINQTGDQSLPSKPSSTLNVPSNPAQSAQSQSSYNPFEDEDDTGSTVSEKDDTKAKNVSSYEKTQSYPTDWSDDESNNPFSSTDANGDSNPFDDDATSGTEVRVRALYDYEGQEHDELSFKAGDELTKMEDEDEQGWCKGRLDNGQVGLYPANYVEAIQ
UniProt Q9P1Y6: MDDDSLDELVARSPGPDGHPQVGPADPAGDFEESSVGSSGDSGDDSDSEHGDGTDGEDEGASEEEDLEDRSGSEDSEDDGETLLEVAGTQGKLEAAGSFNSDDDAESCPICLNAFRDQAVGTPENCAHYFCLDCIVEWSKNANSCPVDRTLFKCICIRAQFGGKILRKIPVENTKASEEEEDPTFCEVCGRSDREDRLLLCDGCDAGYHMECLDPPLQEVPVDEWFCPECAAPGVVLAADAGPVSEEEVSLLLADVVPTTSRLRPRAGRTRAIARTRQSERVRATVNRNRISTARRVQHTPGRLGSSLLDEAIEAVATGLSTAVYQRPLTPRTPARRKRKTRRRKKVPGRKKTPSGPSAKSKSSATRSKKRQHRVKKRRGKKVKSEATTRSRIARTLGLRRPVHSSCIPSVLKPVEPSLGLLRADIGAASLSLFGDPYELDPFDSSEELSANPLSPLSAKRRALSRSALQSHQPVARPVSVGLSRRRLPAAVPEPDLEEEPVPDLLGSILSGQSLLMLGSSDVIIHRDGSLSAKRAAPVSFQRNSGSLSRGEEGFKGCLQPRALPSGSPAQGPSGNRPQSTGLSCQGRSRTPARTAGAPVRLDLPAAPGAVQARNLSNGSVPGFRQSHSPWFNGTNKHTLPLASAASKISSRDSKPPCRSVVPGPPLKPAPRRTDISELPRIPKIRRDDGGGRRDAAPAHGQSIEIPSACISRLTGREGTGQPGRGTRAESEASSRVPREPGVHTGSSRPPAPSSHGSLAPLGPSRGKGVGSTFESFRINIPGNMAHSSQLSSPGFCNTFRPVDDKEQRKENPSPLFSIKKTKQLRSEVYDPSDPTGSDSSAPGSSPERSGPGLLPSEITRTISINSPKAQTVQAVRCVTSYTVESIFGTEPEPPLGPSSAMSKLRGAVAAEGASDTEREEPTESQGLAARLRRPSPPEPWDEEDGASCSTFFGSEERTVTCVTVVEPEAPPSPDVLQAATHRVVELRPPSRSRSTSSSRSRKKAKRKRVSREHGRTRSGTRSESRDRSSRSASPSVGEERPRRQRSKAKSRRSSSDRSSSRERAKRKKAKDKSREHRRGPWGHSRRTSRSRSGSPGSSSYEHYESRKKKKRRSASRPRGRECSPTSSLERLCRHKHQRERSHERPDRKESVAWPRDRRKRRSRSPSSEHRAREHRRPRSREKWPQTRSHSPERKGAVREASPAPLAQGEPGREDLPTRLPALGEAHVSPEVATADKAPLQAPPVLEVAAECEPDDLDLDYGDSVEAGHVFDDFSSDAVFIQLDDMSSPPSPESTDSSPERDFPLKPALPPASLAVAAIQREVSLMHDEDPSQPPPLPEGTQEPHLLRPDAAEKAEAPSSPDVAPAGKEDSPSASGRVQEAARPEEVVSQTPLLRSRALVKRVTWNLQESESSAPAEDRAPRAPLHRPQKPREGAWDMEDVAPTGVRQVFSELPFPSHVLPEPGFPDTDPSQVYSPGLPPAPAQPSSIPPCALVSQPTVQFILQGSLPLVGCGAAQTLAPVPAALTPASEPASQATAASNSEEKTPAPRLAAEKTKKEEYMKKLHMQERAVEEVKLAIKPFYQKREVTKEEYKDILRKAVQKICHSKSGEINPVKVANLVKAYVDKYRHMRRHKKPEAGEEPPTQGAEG

The targets below were run with COc1ccc(Cn2ccc3cc(C)c(C(=O)NO)cc32)cc1 (assay: dose-dependent thermal stabilisation call (2D-TPP, DLPTP, 10% FDR) (binary (1 = stabilised)); higher = stabilised by the compound). Details: system: HL-60 intact cells; concentration range 0.04-10 µM.
Procedure: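 2D thermal proteome profiling in intact HL-60 cells treated with BRD-3811 (0, 0.04, 0.29, 2, 10 uM) for 90 min at 37 C, then heated 3 min at one of 12 temperatures (42-63.9 C). Soluble protein was quantified by TMT10 MS. The value is the DLPTP call of the paper: dose-dependent thermal stabilisation over all temperatures at 10% FDR (F-test of a dose-response against a flat model); one experiment, one call per tested protein.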

Row | Target | dose-dependent thermal stabilisation call
1 | PGP (UniProt A6NDG6) | inactive: 0
2 | PCYOX1L (UniProt Q8NBM8) | active: 1
3 | PGM2L1 (UniProt Q6PCE3) | inactive: 0
4 | PDXDC1 (UniProt Q6P996) | inactive: 0
5 | PIK3R1 (UniProt P27986) | inactive: 0
6 | PGM3 (UniProt O95394) | inactive: 0
7 | PDE4DIP (UniProt Q5VU43) | inactive: 0
8 | PHAX (UniProt Q9H814) | inactive: 0
9 | PDCD7 (UniProt Q8N8D1) | inactive: 0
10 | ORC4L (UniProt O43929) | inactive: 0
11 | PEBP1 (UniProt P30086) | inactive: 0
12 | PDPR (UniProt Q8NCN5) | inactive: 0
13 | PCTP (UniProt Q9UKL6) | inactive: 0
14 | PEX10 (UniProt O60683) | inactive: 0
15 | PAK1 (UniProt Q13153) | inactive: 0
16 | PAF1 (UniProt Q8N7H5) | inactive: 0
17 | PANK4 (UniProt Q9NVE7) | inactive: 0
18 | PI4KA (UniProt P42356) | inactive: 0

Row | Target | dose-dependent thermal stabilisation call
19 | PLA2G12A (UniProt Q9BZM1) | inactive: 0
20 | PDCD6 (UniProt O75340) | inactive: 0
21 | PHACTR2 (UniProt O75167) | inactive: 0
22 | PATZ1 (UniProt Q9HBE1) | inactive: 0
23 | PAPOLA (UniProt P51003) | inactive: 0
24 | PIP4K2C (UniProt Q8TBX8) | inactive: 0
25 | OSBP (UniProt P22059) | inactive: 0
26 | PARP14 (UniProt Q460N5) | inactive: 0
27 | PCNT (UniProt O95613) | inactive: 0
28 | PIK3R4 (UniProt Q99570) | inactive: 0
29 | PIGU (UniProt Q9H490) | inactive: 0
30 | PANK2 (UniProt Q9BZ23) | inactive: 0
31 | PACSIN2 (UniProt Q9UNF0) | inactive: 0
32 | OSBPL9 (UniProt Q96SU4) | inactive: 0
33 | PHRF1 (UniProt Q9P1Y6) | inactive: 0
34 | PFDN5 (UniProt Q99471) | inactive: 0
35 | ORMDL2 (UniProt Q53FV1) | inactive: 0
36 | ORC2L (UniProt Q13416) | inactive: 0

Part of the list above in a different format:

| Row | Target | dose-dependent thermal stabilisation call |
| --- | --- | --- |
| 1 | PGP (UniProt A6NDG6) | inactive: 0 |
| 2 | PCYOX1L (UniProt Q8NBM8) | active: 1 |
| 3 | PGM2L1 (UniProt Q6PCE3) | inactive: 0 |
| 5 | PIK3R1 (UniProt P27986) | inactive: 0 |
| 13 | PCTP (UniProt Q9UKL6) | inactive: 0 |
| 16 | PAF1 (UniProt Q8N7H5) | inactive: 0 |
| 28 | PIK3R4 (UniProt Q99570) | inactive: 0 |
| 30 | PANK2 (UniProt Q9BZ23) | inactive: 0 |
| 31 | PACSIN2 (UniProt Q9UNF0) | inactive: 0 |
